Results are given in words; binding and its absence hold for the method and conditions named. Binding seen in cells or lysates may run through a third protein. Some binding calls cover weakened binding; strength is not graded here. Sequences can lack the tags named with a protein.
Molecular target: Flag-Smad2 (UniProt Q15796)
Experiment: co-IP; lysate of late gastrula Xenopus laevis embryos co-injected with RNA of the Myc-tagged construct and of the Flag-tagged Smad; precipitated with anti-Flag and Dynabeads Protein G, blot with anti-Myc; lysis buffer 150 mM NaCl, 20 mM Tris pH 7.5, 1% Nonidet P-40, 1 mM EDTA; 4 °C overnight; normal rabbit IgG as control

Protein sequences, listed by entry. Tags and fused reporters are not part of them.
UniProt Q15796: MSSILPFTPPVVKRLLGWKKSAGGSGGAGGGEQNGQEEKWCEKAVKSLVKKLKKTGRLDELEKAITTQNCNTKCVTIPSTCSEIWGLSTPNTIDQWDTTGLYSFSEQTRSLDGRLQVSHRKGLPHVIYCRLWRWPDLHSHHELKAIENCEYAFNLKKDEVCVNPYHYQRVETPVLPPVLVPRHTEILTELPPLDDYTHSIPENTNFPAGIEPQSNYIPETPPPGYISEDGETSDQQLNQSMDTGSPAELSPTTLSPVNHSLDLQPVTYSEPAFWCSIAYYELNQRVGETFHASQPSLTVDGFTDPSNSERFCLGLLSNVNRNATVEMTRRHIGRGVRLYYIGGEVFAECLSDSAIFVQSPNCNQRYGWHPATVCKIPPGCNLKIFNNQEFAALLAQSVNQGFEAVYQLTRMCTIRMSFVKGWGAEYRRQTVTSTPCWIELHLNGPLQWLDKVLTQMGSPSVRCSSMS

B1: Myc-Tbx2ΔN (domain or fragment, UniProt B7ZQY8 54-688)
chain: DASLAGAAEAGLHLSALGHHHQAAHLRSLKSLEPEEEVEDDPKVNLEAKELWDQFHKIGTEMVITKSGRRMFPPFKVRVSGLDKKAKYILLMDIVAADDCRYKFHNSRWMVAGKADPEMPKRMYIHPDSPATGEQWMAKPVAFHKLKLTNNISDKHGFTILNSMHKYQPRFHIVRANDILKLPYSTFRTYVFPETDFIAVTAYQNDKITQLKIDNNPFAKGFRDTGNGRREKRKQLSLPSLRMYEEQCKADRDGAESDASSCDPAPGRDSLHSPLSAEPSPLRLHRNNREEKFGADSDQELDRREIRSARSHSPVGHRSPPSSPRLEDRGKDKSTPEKKSDSPESRKDGSDSLFSSIRSLEKDKAESRRKEDSKSDPECGSLSKETFAPLMVQTDSPPHLSASHLQSLALSGLHGQQFFNPLNAGQPLFIHPGQFTMGPGAFSAMGMGHLLASMTGAGALDNGSLSSVQGATGAANPFPFHFSQHMLASQGIPMPAFGGLFPYPYTYMAAAAAAASAMPATSAATTMPRNPFLSSTRPRLRFNPYQIPVGIPPSTNLLTTGLPGSLNPGSESSKPGSSRESSPIPDTPVPKRSHSNSLSPKASMKDSINELQNIQRLVSGLESQREISPGRETPK
binding: binds
